Experimental data from US20070224635A1, “Regulated Stop Codon Readthrough” (Maxygen Holdings, Ltd., priority 2004, published 2007).
At least one structure is not confirmed: it was looked up by name or label, or the drawing left a doubt.

Columns and labels:
[1] = tested on: UAA stop codon (UAAC tetranucleotide); assay: FACS analysis of membrane-anchored protein C after G-418-induced readthrough, PC-UAAC-GPI construct; assay type: cell-based, Chinese hamster (CHO-K1 cells); conditions: G-418 12.5 mg/l to 100 mg/l, 48 hours, FIG. 4
Method: (§1) As a control, the retroviral vector pLenti6-PC-GPI was used to transfect HEK293FT cells and produce retrovirus particles. After 48 hours, supernatants containing retroviral particles were harvested, filter-sterilized to remove cell debris, and subsequently used to infect CHO-K1 cells. CHO-K1 cells were selected for resistance to the Blasticidin antibiotic at the concentration of 5 mg/l for 10 days. The resulting pools of Blasticidin-resistant cells were transferred into 6 culture flasks for each cell pool and grown to 25% confluency. To induce translational readthrough, the antibiotic G-418 was added to the culture flasks at final concentrations ranging from 12.5 mg/l to 100 mg/l and flasks were incubated for another 48 hours at 37° C. […] Labeled retroviral cell lines were analyzed by FACS for membrane-anchored recombinant PC using a FACScalibur™ (Becton Dickinson) instrument with an excitation wave length of 488 nm and an emission filter of 585 nm.
(§2) The results shown in FIG. 4 illustrate that both cell lines expressing the PC-UAAC-GPI and PC-UGAC-GPI reporters display PC at the cell surface in the presence of aminoglycoside. […] Furthermore, the amount of recombinant membrane-anchored PC is more abundant for the PC-UGAC-GPI construct than for the PC-UAAC-GPI construct, and this applies to all aminoglycoside concentrations that were assessed.

[2] = tested on: nonsense mutation in CFTR; conditions: cell line carrying a nonsense mutation in CFTR; cited from earlier work
premature UAG mutation = conditions: cultured mammalian cells; cited from earlier work
[3] = tested on: UGA stop codon (UGAC tetranucleotide); assay: FACS analysis of membrane-anchored protein C after G-418-induced readthrough, PC-UGAC-GPI construct; assay type: cell-based, Chinese hamster (CHO-K1 cells); conditions: G-418 12.5 mg/l to 100 mg/l, 48 hours, FIG. 4
Method: as §1, §2

UGA nonsense codon = assay: FACS display of IFNα library fusion (SP-IFN-Etag-Stag-UGA-V5-GPI) in CHO-K1 cells; assay type: cell-based, Chinese hamster (CHO-K1 cells)

CN[C@@H]1[C@@H](O)[C@@H](O[C@@H]2[C@@H](O)[C@H](O[C@H]3O[C@H]([C@@H](C)O)[C@@H](O)[C@H](O)[C@H]3N)[C@@H](N)C[C@H]2N)OC[C@]1(C)O [G-418]
amount of recombinant membrane-anchored PC detected [1]: proportional to the G-418 concentration
expression of CFTR protein [2]: restore the expression
synthesis of full-size protein from mutant gene (premature UAG mutation): partially restore the synthesis of a full-size protein
amount of recombinant membrane-anchored PC detected [3]: proportional to the G-418 concentration
percentage of cells displaying detectable levels of fusion protein (UGA nonsense codon; G-418 100 mg/l, 48 hours): substantially increase
percentage of cells displaying detectable levels of fusion protein (UGA nonsense codon; G-418 together with about 2 mM sodium butyrate): increase substantially
